This experiment deals with Utp10-TAP (S. cerevisiae) (UniProt P42945). As to the kind of experiment: co-IP.

Amino acid sequences for entries named in this document (tags omitted).
UniProt P42945: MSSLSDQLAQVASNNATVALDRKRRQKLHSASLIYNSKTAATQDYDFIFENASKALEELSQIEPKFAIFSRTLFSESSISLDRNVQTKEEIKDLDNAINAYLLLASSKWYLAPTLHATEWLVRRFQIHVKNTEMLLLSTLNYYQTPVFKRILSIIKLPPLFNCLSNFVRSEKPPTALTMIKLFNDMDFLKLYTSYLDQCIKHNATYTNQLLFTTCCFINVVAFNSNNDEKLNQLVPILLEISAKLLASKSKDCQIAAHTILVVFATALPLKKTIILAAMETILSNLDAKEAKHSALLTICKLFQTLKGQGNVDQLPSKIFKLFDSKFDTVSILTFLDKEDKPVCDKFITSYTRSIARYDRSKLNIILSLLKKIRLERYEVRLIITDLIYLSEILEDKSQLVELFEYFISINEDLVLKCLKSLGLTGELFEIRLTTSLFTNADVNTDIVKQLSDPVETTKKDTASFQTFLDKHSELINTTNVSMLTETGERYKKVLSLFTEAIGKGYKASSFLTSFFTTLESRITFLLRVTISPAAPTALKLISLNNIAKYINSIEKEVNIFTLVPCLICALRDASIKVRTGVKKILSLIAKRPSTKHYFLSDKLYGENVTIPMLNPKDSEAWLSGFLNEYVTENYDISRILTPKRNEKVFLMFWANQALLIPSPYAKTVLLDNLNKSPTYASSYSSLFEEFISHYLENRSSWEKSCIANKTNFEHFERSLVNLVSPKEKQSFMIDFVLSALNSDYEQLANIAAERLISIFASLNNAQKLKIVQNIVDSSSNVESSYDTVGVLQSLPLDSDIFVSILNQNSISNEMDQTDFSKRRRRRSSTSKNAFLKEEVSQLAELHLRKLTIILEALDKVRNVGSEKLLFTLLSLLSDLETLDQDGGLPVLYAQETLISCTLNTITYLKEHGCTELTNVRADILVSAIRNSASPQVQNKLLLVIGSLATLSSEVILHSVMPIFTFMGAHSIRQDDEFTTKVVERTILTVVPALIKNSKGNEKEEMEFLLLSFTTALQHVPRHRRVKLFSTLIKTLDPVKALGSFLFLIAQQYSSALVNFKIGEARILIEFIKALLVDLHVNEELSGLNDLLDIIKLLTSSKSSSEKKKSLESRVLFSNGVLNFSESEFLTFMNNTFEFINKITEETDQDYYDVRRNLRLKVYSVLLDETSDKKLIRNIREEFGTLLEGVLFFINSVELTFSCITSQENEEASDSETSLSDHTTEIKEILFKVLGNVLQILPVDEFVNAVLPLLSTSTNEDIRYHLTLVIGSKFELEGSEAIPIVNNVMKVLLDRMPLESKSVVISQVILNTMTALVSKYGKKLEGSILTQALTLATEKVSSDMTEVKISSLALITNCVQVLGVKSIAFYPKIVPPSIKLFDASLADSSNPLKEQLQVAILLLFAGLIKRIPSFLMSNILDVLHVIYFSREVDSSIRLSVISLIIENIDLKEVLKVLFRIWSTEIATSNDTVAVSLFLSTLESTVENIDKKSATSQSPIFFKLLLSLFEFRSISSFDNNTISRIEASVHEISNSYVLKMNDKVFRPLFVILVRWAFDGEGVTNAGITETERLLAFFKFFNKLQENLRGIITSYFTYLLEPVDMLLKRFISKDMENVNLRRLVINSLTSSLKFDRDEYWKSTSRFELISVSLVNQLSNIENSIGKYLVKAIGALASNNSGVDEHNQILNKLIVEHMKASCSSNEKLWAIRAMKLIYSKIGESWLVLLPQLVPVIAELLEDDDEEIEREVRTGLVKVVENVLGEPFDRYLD

These are yes or no findings as the source states them, for the method shown. In cells and extracts the contact can be indirect. Some entries that bind do so weakly or less than the wild type.

B1: Rcl1 (protein, UniProt Q08096 1-367)
chain: MSSSAPKYTTFQGSQNFRLRIVLATLSGKPIKIEKIRSGDLNPGLKDYEVSFLRLIESVTNGSVIEISYTGTTVIYRPGIIVGGASTHICPSSKPVGYFVEPMLYLAPFSKKKFSILFKGITASHNDAGIEAIKWGLMPVMEKFGVRECALHTLKRGSPPLGGGEVHLVVDSLIAQPITMHEIDRPIISSITGVAYSTRVSPSLVNRMIDGAKKVLKNLQCEVNITADVWRGENSGKSPGWGITLVAQSKQKGWSYFAEDIGDAGSIPEELGEKVACQLLEEISKSAAVGRNQLPLAIVYMVIGKEDIGRLRINKEQIDERFIILLRDIKKIFNTEVFLKPVDEADNEDMIATIKGIGFTNTSKKIA
As to B1, the binding result is reported as “binds”.

B2: Utp8 (protein, UniProt P53276 1-713)
chain: MPSLSQPFRLATLPKIASLSNFSLQADYVQVADGTFNESTNNITLGISGSSISQYIINPTPKLTFDYPIPSTNIITACNAEKGQANIDGNIEASTDDEANNEKTINTQKKRNVEIWAFGLMVNKGNYTLNVITKALEDTTDTSNDHLSESDIDNKAYTGSDEFLSQYKIKAKAKVMSIKIDTKNSLVIAILQNGLIEIFDFKLTLLHSFDISYDNLKYAKWFTENGTEYVFVLCPLQDDKVCYKLLELTDCGSGESSPIKELSSTIIEGFSFENSKLCYQFGKLYKLNQGKIYIYSLPHCQLQQVIEFPMVDKLSPGDDLISFQPVSVNRVLLTVNNVIYLLDLLHCSTLSQRELTHVKTFQLLKSAVINSEKSHNSKTIAIGISTKNGPNPTSSLEIINIDVGTNTLKDSLGKSFQVGNNDSSVILKPLFDDKDINDKRVKCNDVSGDSSVPVLHCNEVIEKLSALQDNDITSFDDIFFKELKIKEEHYTEKDRYISDPGFLNKVLDLIFGKFSGNDYPKTLTFLLTHPLFPLSRTRNLLSLLRDQPRLFKQAIVTCPNLPLNELLEELFSIRNRELLLDISFRILQDFTRDSIKQEMKKLSKLDVQNFIEFITSGGEDSSPECFNPSQSTQLFQLLSLVLDSIGLFSLEGALLENLTLYIDKQVEIAERNTELWNLIDTKGFQHGFASSTFDNGTSQKRALPTYTMEYLDI
Take B2: the binding entry was “binds”.

B3: Utp13 (protein, UniProt Q05946 1-817)
chain: MDLKTSYKGISLNPIYAGSSAVATVSENGKILATPVLDEINIIDLTPGSRKILHKISNEDEQEITALKLTPDGQYLTYVSQAQLLKIFHLKTGKVVRSMKISSPSYILDADSTSTLLAVGGTDGSIIVVDIENGYITHSFKGHGGTISSLKFYGQLNSKIWLLASGDTNGMVKVWDLVKRKCLHTLQEHTSAVRGLDIIEVPDNDEPSLNLLSGGRDDIINLWDFNMKKKCKLLKTLPVNQQVESCGFLKDGDGKRIIYTAGGDAIFQLIDSESGSVLKRTNKPIEELFIIGVLPILSNSQMFLVLSDQTLQLINVEEDLKNDEDTIQVTSSIAGNHGIIADMRYVGPELNKLALATNSPSLRIIPVPDLSGPEASLPLDVEIYEGHEDLLNSLDATEDGLWIATASKDNTAIVWRYNENSCKFDIYAKYIGHSAAVTAVGLPNIVSKGYPEFLLTASNDLTIKKWIIPKPTASMDVQIIKVSEYTRHAHEKDINALSVSPNDSIFATASYDKTCKIWNLENGELEATLANHKRGLWDVSFCQYDKLLATSSGDKTVKIWSLDTFSVMKTLEGHTNAVQRCSFINKQKQLISCGADGLIKIWDCSSGECLKTLDGHNNRLWALSTMNDGDMIVSADADGVFQFWKDCTEQEIEEEQEKAKLQVEQEQSLQNYMSKGDWTNAFLLAMTLDHPMRLFNVLKRALGESRSRQDTEEGKIEVIFNEELDQAISILNDEQLILLMKRCRDWNTNAKTHTIAQRTIRCILMHHNIAKLSEIPGMVKIVDAIIPYTQRHFTRVDNLVEQSYILDYALVEMDKLF
Consider B3, for which the binding result is recorded as “binds”.

B4: Bms1 (protein, UniProt Q08965 1-1183)
chain: MEQSNKQHRKAKEKNTAKKKLHTQGHNAKAFAVAAPGKMARTMQRSSDVNERKLHVPMVDRTPEDDPPPFIVAVVGPPGTGKTTLIRSLVRRMTKSTLNDIQGPITVVSGKHRRLTFLECPADDLNAMIDIAKIADLVLLLIDGNFGFEMETMEFLNIAQHHGMPRVLGVATHLDLFKSQSTLRASKKRLKHRFWTEVYQGAKLFYLSGVINGRYPDREILNLSRFISVMKFRPLKWRNEHPYMLADRFTDLTHPELIETQGLQIDRKVAIYGYLHGTPLPSAPGTRVHIAGVGDFSVAQIEKLPDPCPTPFYQQKLDDFEREKMKEEAKANGEITTASTTRRRKRLDDKDKLIYAPMSDVGGVLMDKDAVYIDIGKKNEEPSFVPGQERGEGEKLMTGLQSVEQSIAEKFDGVGLQLFSNGTELHEVADHEGMDVESGEESIEDDEGKSKGRTSLRKPRIYGKPVQEEDADIDNLPSDEEPYTNDDDVQDSEPRMVEIDFNNTGEQGAEKLALETDSEFEESEDEFSWERTAANKLKKTESKKRTWNIGKLIYMDNISPEECIRRWRGEDDDSKDESDIEEDVDDDFFRKKDGTVTKEGNKDHAVDLEKFVPYFDTFEKLAKKWKSVDAIKERFLGAGILGNDNKTKSDSNEGGEELYGDFEDLEDGNPSEQAEDNSDKESEDEDENEDTNGDDDNSFTNFDAEEKKDLTMEQEREMNAAKKEKLRAQFEIEEGENFKEDDENNEYDTWYELQKAKISKQLEINNIEYQEMTPEQRQRIEGFKAGSYVRIVFEKVPMEFVKNFNPKFPIVMGGLLPTEIKFGIVKARLRRHRWHKKILKTNDPLVLSLGWRRFQTLPIYTTTDSRTRTRMLKYTPEHTYCNAAFYGPLCSPNTPFCGVQIVANSDTGNGFRIAATGIVEEIDVNIEIVKKLKLVGFPYKIFKNTAFIKDMFSSAMEVARFEGAQIKTVSGIRGEIKRALSKPEGHYRAAFEDKILMSDIVILRSWYPVRVKKFYNPVTSLLLKEKTEWKGLRLTGQIRAAMNLETPSNPDSAYHKIERVERHFNGLKVPKAVQKELPFKSQIHQMKPQKKKTYMAKRAVVLGGDEKKARSFIQKVLTISKAKDSKRKEQKASQRKERLKKLAKMEEEKSQRDKEKKKEYFAQNGKRTTMGGDDESRPRKMRR
Regarding B4, the binding result is recorded as “binds”.

B5: Enp1 (protein, UniProt P38333 1-483)
chain: MARASSTKARKQRHDPLLKDLDAAQGTLKKINKKKLAQNDAANHDAANEEDGYIDSKASRKILQLAKEQQDEIEGEELAESERNKQFEARFTTMSYDDEDEDEDEDEEAFGEDISDFEPEGDYKEEEEIVEIDEEDAAMFEQYFKKSDDFNSLSGSYNLADKIMASIREKESQVEDMQDDEPLANEQNTSRGNISSGLKSGEGVALPEKVIKAYTTVGSILKTWTHGKLPKLFKVIPSLRNWQDVIYVTNPEEWSPHVVYEATKLFVSNLTAKESQKFINLILLERFRDNIETSEDHSLNYHIYRAVKKSLYKPSAFFKGFLFPLVETGCNVREATIAGSVLAKVSVPALHSSAALSYLLRLPFSPPTTVFIKILLDKKYALPYQTVDDCVYYFMRFRILDDGSNGEDATRVLPVIWHKAFLTFAQRYKNDITQDQRDFLLETVRQRGHKDIGPEIRRELLAGASREFVDPQEANDDLMIDVN
Regarding B5, the binding result is recorded as “binds”.

B6: Rok1 (protein, UniProt P45818 1-564)
chain: MDIFRVLTRGASVKKESGPKAKAADYSVINGNDENHKEDNNESQIVKELDFFRNKRIISKVEDDREKTTENDSPNKEEKSGNDDGLIKPVITNTVEASALRKSYKGNVSGIDIPLPIGSFEDLISRFSFDKRLLNNLIENGFTEPTPIQCECIPVALNNRDVLACGPTGSGKTLAFLIPLVQQIIDDKQTAGLKGLIISPTKELANQIFIECFKLSYKIFLEKKRPLQVALLSKSLGAKLKNKVVSDKKYDIIISTPLRLIDVVKNEALDLSKVKHLIFDEADKLFDKTFVEQSDDILSACREPSLRKAMFSATIPSNVEEIAQSIMMDPVRVIIGHKEAANTNIEQKLIFCGNEEGKLIAIRQLVQEGEFKPPIIIFLESITRAKALYHELMYDRINVDVIHAERTALQRDRIIERFKTGELWCLICTDVLARGIDFKGVNLVINYDVPGSSQAYVHRIGRTGRGGRSGKAITFYTKQDSVAIKPIINVMKQSGCEVSEWMDKMAKMTRKEKESIKNGKAHKERKQITTVPKMDKAKRRRQQEMIAASKRRKNEELSKKHFSK
On to B6, for which the binding entry is “binds”.

The record behind these values is paper doi:10.1101/2021.09.06.459192.
